Results on 1 molecule are retold here after publication doi:10.1101/2025.11.24.690153.

In test [1] the target is Bacillus subtilis major pilin ComGC, N-terminal truncation starting from amino acid 28 (B. subtilis) (UniProt P25955). The test is described as follows: SEC.
The target is the same in test [2]. The test is described as follows: SEC. This is another data set of the same source.

Read-outs that look alike come from different tables or passages of the source. Results are given in words; binding and its absence hold for the method and conditions named.

B1: Bacillus subtilis major pilin ComGC, N-terminal truncation starting from amino acid 28 (domain or fragment, UniProt P25955 28-98)
chain: NVTKHNQTIQKKGCEGLQNMVKAQMTAFELDHEGQTPSLADLQSEGYVKKDAVCPNGKRIIITGGEVKVEH
For B1, the binding result in test [1] and in test [2] was “no binding” in each case.
